PubChem BioAssay AID743454, Peter MacCallum Cancer Centre, 2014

- Screen: 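Knock-downs lowering viability or raising caspase 3/7 activity in vorinostat-treated resistant cells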 (primary screen)
- Cell system: human HCT116-VR colon cancer cells, selected for vorinostat resistance
- Reagents: siRNA pool against human genes, 40 nM siRNA pool
- Duration: vorinostat for 24 h, read-out about 72 h after transfection
- Treatment: vorinostat at 2.5 µM final
- Measurement: 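Cell viability by CellTiter-Fluor and caspase 3/7 activity by luminescence, each scaled to mock wells per plate, duplicates averaged, then robust z-scored over all plates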
- Scale: viability robust z-score: higher = more viable cells than screen typical; caspase robust z-score: higher = more caspase 3/7 activity than screen typical
- Rule for the call: 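Hits are knock-downs in viability class RV1/RV2 or caspase class CA1/CA2, excluding ones that killed cells in the no-drug cell-count arm; hits then retested with single siRNAs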
The deposit covers about 18,000 reagents; below is an unselected part. Of all reagents, 450 (2.5%) are marked active. 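Single biological run; no consistent viability z cut-off exists, so the class columns, not z-scores, define the calls.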 Reagents against one gene are numbered here. Reagent sequences are not shown.

gene knocked down | pool no. | viability hit class | caspase hit class | viability robust z-score | caspase robust z-score | activity call
SEMG1 | 1 | no change | no change | 0.23 | -0.7 | inactive
CHAC2 | 1 | no change | no change | -0.31 | 0.13 | inactive
CACNA1H | 1 | no change | no change | -0.2 | 0.82 | inactive
DDHD2 | 1 | no change | no change | -1.48 | 2.29 | inactive
ZNF117 | 1 | no change | no change | -1.54 | -0.48 | inactive
TNFSF14 | 1 | no change | no change | -0.79 | 1.07 | inactive
PMPCB | 1 | no change | no change | 0.46 | -0.84 | inactive
SAP130 | 1 | no change | CA1 (caspase activation) | -1.17 | 5.57 | active
MON1B | 1 | no change | no change | 0.71 | -0.37 | inactive
PRRT1 | 1 | no change | no change | -0.36 | 3.35 | inactive
AGRP | 1 | no change | no change | -0.87 | -0.97 | inactive
UBE3B | 1 | no change | no change | -0.51 | 2.29 | inactive
MS4A6A | 1 | no change | no change | 0.05 | -0.78 | inactive
ADAMTS10 | 1 | no change | no change | -1 | 4.16 | inactive
AGPAT1 | 1 | no change | no change | 0.6 | -0.14 | inactive
RLN3 | 1 | no change | CA1 (caspase activation) | -0.6 | 9.17 | active
WASF2 | 1 | no change | no change | 0.08 | -0.22 | inactive
MYCL | 1 | no change | no change | 0.02 | -0.42 | inactive
FAM47B | 1 | no change | no change | 0.45 | -0.12 | inactive
ATP6V1D | 1 | no change | no change | -0.7 | -0.21 | inactive
MRPL53 | 1 | no change | no change | 0.34 | 1.02 | inactive
TMEFF2 | 1 | no change | no change | 0.05 | 0.12 | inactive

Next part, starting with the last 5 of the part before.
gene knocked down | pool no. | viability hit class | caspase hit class | viability robust z-score | caspase robust z-score | activity call
MYCL | 1 | no change | no change | 0.02 | -0.42 | inactive
FAM47B | 1 | no change | no change | 0.45 | -0.12 | inactive
ATP6V1D | 1 | no change | no change | -0.7 | -0.21 | inactive
MRPL53 | 1 | no change | no change | 0.34 | 1.02 | inactive
TMEFF2 | 1 | no change | no change | 0.05 | 0.12 | inactive
DYRK4 | 1 | no change | no change | 1.7 | 2.92 | inactive
HGS | 1 | no change | no change | -0.16 | -0.17 | inactive
MTMR4 | 1 | no change | no change | 0.05 | -0.76 | inactive
DPP6 | 1 | no change | no change | 1.16 | -0.74 | inactive
APOC3 | 1 | no change | no change | -0.5 | -0.55 | inactive
EPM2AIP1 | 1 | no change | no change | -0.48 | -0.45 | inactive
OSBP2 | 1 | no change | no change | -0.66 | 3.14 | inactive
NPY5R | 1 | no change | no change | 0.26 | -1.43 | inactive
TXNDC16 | 1 | no change | no change | 1.04 | -0.44 | inactive
RBFOX3 | 1 | no change | no change | 0.6 | 0.6 | inactive
RBFOX3 | 2 | no change | no change | -0.06 | -0.76 | inactive
LRRN3 | 1 | no change | no change | 0.34 | -0.92 | inactive
LRRC8D | 1 | no change | no change | -1.12 | 1.6 | inactive
ACAD8 | 1 | no change | no change | 0.68 | -0.74 | inactive
ATP7B | 1 | no change | CA1 (caspase activation) | -0.92 | 5.55 | active
ZC3H8 | 1 | no change | no change | -1.17 | 0.37 | inactive
KIF5B | 1 | no change | no change | 0.57 | 1.28 | inactive
KIF15 | 1 | no change | no change | -0.48 | 0.72 | inactive
OGFRL1 | 1 | no change | no change | 0.02 | 1.91 | inactive
CAVIN2 | 1 | no change | no change | 0.99 | -0.32 | inactive
RECK | 1 | no change | CA1 (caspase activation) | -0.08 | 7.44 | active
NDUFB1 | 1 | no change | no change | 1.11 | -0.37 | inactive
PCDHGB5 | 1 | no change | no change | 0.62 | 0.1 | inactive
PITPNM1 | 1 | no change | no change | 0.04 | 0.31 | inactive
NRAP | 1 | no change | no change | -0.36 | -0.38 | inactive
CAGE1 | 1 | no change | no change | 0.39 | -0.03 | inactive
DEPTOR | 1 | no change | no change | 0.29 | -1.27 | inactive
SLC39A8 | 1 | no change | no change | 0.24 | -0.3 | inactive
ACAT2 | 1 | no change | no change | -1.13 | 1.25 | inactive
TAF11 | 1 | no change | no change | 0.29 | 0.57 | inactive
SEC31B | 1 | no change | no change | -0.32 | 2.81 | inactive
ARHGEF3 | 1 | no change | no change | -0.22 | -0.68 | inactive
JUN | 1 | no change | no change | 0.64 | 0.6 | inactive
CNNM3 | 1 | no change | no change | -0.72 | -0.14 | inactive
FMO1 | 1 | no change | no change | -0.11 | -0.13 | inactive
